Experimental data: PubChem BioAssay AID1224828 (NIAID, 2016)

Purpose: 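Knock-downs that increase or decrease LPS-induced p65 nuclear translocation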 (primary screen)
System: mouse RAW264.7 G9 macrophage reporter cells (GFP-p65, Tnf promoter-mCherry)
Reagent: siRNA pool against mouse genes, 100 nM
Timing: 2 days siRNA transfection, then 40 min LPS before fixation
Conditions: LPS (Salmonella minnesota R595) at 10 ng/ml
Measured: 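Imaged p65 nuclear translocation ratio, normalised to the plate median, converted to robust z-scores and averaged across two replicates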
Direction: p65 translocation robust z-score: higher = more nuclear NF-kappaB p65 after LPS than the plate median; nuclear/cytoplasmic p65 ratio: higher = more nuclear NF-kappaB p65
Rule for the call: 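Called active when z exceeds 3.3 or falls under -1.56 (median of Tlr4 controls), giving activity score of at least 50; no calls for control wells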
Meaning of the calls: active = hit (p65 shift raised or lowered); inactive = no clear change
The deposit covers about 17,000 reagents; this is an unselected part. 762 of them (4.5%) were called active. 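Active calls include both raised and lowered p65 entry, mostly lowered; wells with fewer than 50 cells lack a z-score.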 Raw values vary from plate to plate and are shown uncorrected. Some reagents were tested in more than one well and are listed for each.

target gene,PubChem SID,p65 translocation robust z-score,"nuclear/cytoplasmic p65 ratio, rep 1","nuclear/cytoplasmic p65 ratio, rep 2",low cell count flag,activity call
Smim7,SID315472654,-0.23,1.34,1.57,enough cells to score,inactive
Arhgap17,SID315474069,1.46,1.68,1.85,enough cells to score,inactive
Zbtb41,SID315478503,-1.31,1.23,1.39,enough cells to score,inactive
Mplkip,SID315472354,2.49,1.73,1.79,enough cells to score,inactive
Babam2,SID315476661,-0.57,1.54,1.52,enough cells to score,inactive
Pip5k1a,SID315468522,,,1.03,fewer than 50 cells per well; well left out of scoring,inactive
6820408C15Rik,SID315478656,1.37,1.69,1.66,enough cells to score,inactive
Ech1,SID315470909,0.46,1.29,1.41,enough cells to score,inactive
Rgp1,SID315479611,1.37,1.59,1.77,enough cells to score,inactive
Timmdc1,SID315475412,,1.22,1.28,fewer than 50 cells per well; well left out of scoring,inactive
Or52n2c,SID315480664,-1.4,1.29,1.11,enough cells to score,inactive
Dguok,SID315470582,0.32,1.75,1.43,enough cells to score,inactive
Defb40,SID315481731,-0.5,1.5,1.47,enough cells to score,inactive
Otos,SID315480732,0.04,1.38,1.3,enough cells to score,inactive
Adck5,SID315480801,-1.53,1.37,1.25,enough cells to score,inactive
Ticrr,SID315480897,-0.89,1.44,1.7,enough cells to score,inactive
Ptges2,SID315476090,0.09,1.44,1.18,enough cells to score,inactive
Klhl2,SID315475447,0.32,1.59,1.46,enough cells to score,inactive
Ppp3r2,SID315468672,0.46,1.61,1.42,enough cells to score,inactive
Tut7,SID315477854,1.62,1.57,1.46,enough cells to score,inactive
Tut7,SID315477855,,1.36,1.31,fewer than 50 cells per well; well left out of scoring,inactive
Notch3,SID315468213,-0.53,1.42,1.3,enough cells to score,inactive
Myh4,SID315468060,-0.15,1.39,1.35,enough cells to score,inactive
Lce1m,SID315472287,0.2,1.43,1.27,enough cells to score,inactive
Sftpd,SID315469203,-1.63,1.35,1.29,enough cells to score,active
Tm9sf3,SID315476595,,1.22,1.18,fewer than 50 cells per well; well left out of scoring,inactive
Lamb1,SID315467722,0.62,1.46,1.55,enough cells to score,inactive
Slc38a5,SID315477619,-0.19,1.53,1.79,enough cells to score,inactive
Pea15a,SID315468459,-0.23,1.44,1.36,enough cells to score,inactive
Optc,SID315480833,-0.06,1.61,1.24,enough cells to score,inactive
Atp4a,SID315465552,-1.59,1.18,1.35,enough cells to score,active
Sepsecs,SID315477665,-1.02,1.29,1.53,enough cells to score,inactive
Lima1,SID315472167,-1.42,1.37,1.54,enough cells to score,inactive
Ppcdc,SID315472649,0.31,1.46,1.59,enough cells to score,inactive
Or3a1c,SID315480355,0.45,1.58,1.31,enough cells to score,inactive
Ubxn2b,SID315473392,,1.17,1.15,fewer than 50 cells per well; well left out of scoring,inactive
Osmr,SID315468352,0.03,1.47,1.4,enough cells to score,inactive
Psmc3ip,SID315468747,,0.938,1.02,fewer than 50 cells per well; well left out of scoring,inactive
Rgs7,SID315470285,1.15,1.59,1.35,enough cells to score,inactive
Rgs7,SID315470285,0.88,1.38,1.71,enough cells to score,inactive
Prss21,SID315471731,-0.31,1.31,1.2,enough cells to score,inactive
Ints1,SID315473552,0.86,1.66,1.57,enough cells to score,inactive
Rnf25,SID315471809,0.22,1.45,1.24,enough cells to score,inactive
Ky,SID315467710,0.61,1.52,1.62,enough cells to score,inactive
Fosl1,SID315466737,0.87,1.55,1.48,enough cells to score,inactive
Ly6f,SID315467783,0.29,1.73,1.61,enough cells to score,inactive
Or10d4c,SID315480173,,1.09,1.15,fewer than 50 cells per well; well left out of scoring,inactive
Cpq,SID315471214,-1.33,1.26,1.06,enough cells to score,inactive
Pcdhb15,SID315475998,2.17,1.88,1.36,enough cells to score,inactive
Spg7,SID315471771,1.28,1.7,2.09,enough cells to score,inactive
Spg7,SID315479204,0.19,1.52,1.64,enough cells to score,inactive
Or5w12,SID315480308,-1.07,1.51,1.41,enough cells to score,inactive
Ctsz,SID315472069,-0.14,1.51,1.32,enough cells to score,inactive
Itpkc,SID315479038,-0.58,1.52,1.3,enough cells to score,inactive
Fbxo42,SID315477811,1.42,1.57,1.8,enough cells to score,inactive
Dbh,SID315466268,-0.18,1.36,1.33,enough cells to score,inactive
Ckm,SID315465981,-1.33,1.4,1.28,enough cells to score,inactive
Wls,SID315473429,-0.7,1.25,1.39,enough cells to score,inactive
Cfdp1,SID315470195,1.09,1.72,2,enough cells to score,inactive
H2bc9,SID315481046,-1.38,1.25,1.22,enough cells to score,inactive
Rgs11,SID315470844,-0.38,1.4,1.59,enough cells to score,inactive
Fev,SID315480730,-2.01,1.28,1.21,enough cells to score,active
Ptgr3,SID315478436,,1.65,1.57,fewer than 50 cells per well; well left out of scoring,inactive
Spata2l,SID315475615,,1.21,1.29,fewer than 50 cells per well; well left out of scoring,inactive
Grik1,SID315467029,-1.3,1.34,1.13,enough cells to score,inactive
Tmc8,SID315478115,-1.46,1.01,1.41,enough cells to score,inactive
Gpalpp1,SID315473046,,1.55,1.49,fewer than 50 cells per well; well left out of scoring,inactive
Taar1,SID315476962,,1.57,1.81,fewer than 50 cells per well; well left out of scoring,inactive
Flii,SID315466716,-2.32,1.27,1.13,enough cells to score,active
Scyl1,SID315475639,-0.63,1.51,1.3,enough cells to score,inactive
Itgb1bp1,SID315467516,0.48,1.75,1.44,enough cells to score,inactive
Dnajc1,SID315466350,0.61,1.58,1.41,enough cells to score,inactive
Tpst2,SID315469810,,0,0,fewer than 50 cells per well; well left out of scoring,inactive
Hoxa11,SID315467249,0.12,1.47,1.37,enough cells to score,inactive
Rilpl1,SID315475180,0.27,1.32,1.26,enough cells to score,inactive

Entries above called active (4):
target gene,PubChem SID,p65 translocation robust z-score,"nuclear/cytoplasmic p65 ratio, rep 1","nuclear/cytoplasmic p65 ratio, rep 2",low cell count flag,activity call
Sftpd,SID315469203,-1.63,1.35,1.29,enough cells to score,active
Atp4a,SID315465552,-1.59,1.18,1.35,enough cells to score,active
Fev,SID315480730,-2.01,1.28,1.21,enough cells to score,active
Flii,SID315466716,-2.32,1.27,1.13,enough cells to score,active
